No constants are given. Whether binding was seen depends on the method and setting. In cells and extracts the contact can be indirect. Some entries that bind do so weakly or less than the wild type.
Assays:
[1] = molecular target: HA-tagged TCF7L2 (WT) (human) (UniProt Q9NQB0); test: co-IP; HEK293T cells cotransfected with HA-tagged TCF7L2 or its deletion mutants and FLAG-VBP1; cell lysates subjected to co-immunoprecipitation; the precipitating antibody is not told
[2] = molecular target: GST-VBP1 (human) (UniProt P61758); test: pull-down; GST-VBP1 from bacteria held on GSH Sepharose 4B beads, incubated 2 h at 4 °C with lysates of nontransfected HEK293T cells or of HEK293T cells transfected with Myc-Tcf/Lefs or FLAG-pVHL; 50 mM Tris pH 7.5, 150 mM NaCl, 1 mM EDTA, 10% glycerol, 1% Triton X-100; only the target purified
[3] = molecular target: FLAG-tagged VBP1 (pVHL binding protein 1) (human) (UniProt P61758); test: co-IP; HEK293T cells transfected with FLAG-VBP1; after 48 h extracts immunoprecipitated with anti-FLAG antibody, endogenous partners detected by Western blot; IP lysis buffer 50 mM Tris pH 7.5, 150 mM NaCl, 1 mM EDTA, 10% glycerol, 1% Triton X-100
[4] = molecular target: endogenous TCF7L2 (human (endogenous in HEK293T and HCT116)) (UniProt Q9NQB0); test: co-IP; endogenous proteins; extracts of HEK293T cells (control, FLAG-VBP1 overexpression or VBP1 shRNA knockdown) and HCT116 cells (control or VBP1 knockdown) immunoprecipitated with anti-TCF7L2 antibody, Western blot

Amino acid sequences for entries named in this document (tags omitted).
UniProt Q9NQB0: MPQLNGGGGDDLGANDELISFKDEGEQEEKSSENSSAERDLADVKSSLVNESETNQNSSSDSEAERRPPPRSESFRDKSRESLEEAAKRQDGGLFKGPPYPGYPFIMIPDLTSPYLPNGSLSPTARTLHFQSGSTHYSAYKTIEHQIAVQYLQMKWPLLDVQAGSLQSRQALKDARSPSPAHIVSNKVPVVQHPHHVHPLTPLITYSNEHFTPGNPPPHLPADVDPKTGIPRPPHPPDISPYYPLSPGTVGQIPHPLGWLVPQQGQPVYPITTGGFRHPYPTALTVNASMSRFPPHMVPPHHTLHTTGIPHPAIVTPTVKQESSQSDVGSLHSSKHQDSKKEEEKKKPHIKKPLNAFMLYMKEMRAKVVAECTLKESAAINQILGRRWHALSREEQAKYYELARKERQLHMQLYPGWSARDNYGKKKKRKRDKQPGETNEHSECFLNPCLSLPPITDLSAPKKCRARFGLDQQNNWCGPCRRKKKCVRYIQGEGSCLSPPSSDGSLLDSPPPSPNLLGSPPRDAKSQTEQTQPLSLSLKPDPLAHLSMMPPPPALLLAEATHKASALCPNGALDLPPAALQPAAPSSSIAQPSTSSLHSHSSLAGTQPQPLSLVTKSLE
UniProt P61758: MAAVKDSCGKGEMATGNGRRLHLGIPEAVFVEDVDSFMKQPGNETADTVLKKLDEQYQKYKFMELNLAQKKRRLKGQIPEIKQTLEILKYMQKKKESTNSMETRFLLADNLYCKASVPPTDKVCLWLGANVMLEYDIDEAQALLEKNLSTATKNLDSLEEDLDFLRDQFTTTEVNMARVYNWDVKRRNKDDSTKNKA
UniProt P40337: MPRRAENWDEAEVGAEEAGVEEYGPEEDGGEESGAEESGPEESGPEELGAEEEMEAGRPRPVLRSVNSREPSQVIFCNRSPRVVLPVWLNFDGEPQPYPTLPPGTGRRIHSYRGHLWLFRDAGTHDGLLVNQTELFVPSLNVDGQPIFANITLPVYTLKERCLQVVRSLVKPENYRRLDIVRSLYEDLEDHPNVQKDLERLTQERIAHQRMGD

binding [1]	binding [2]	binding [3]	binding [4]	Substance
binds				FLAG-tagged VBP1 (pVHL binding protein 1) (from UniProt P61758 1-197)
	binds			FLAG-tagged pVHL (from UniProt P40337 1-213)
	binds	binds		endogenous TCF7L2 (from UniProt Q9NQB0 1-619)
		binds	binds	endogenous von Hippel-Lindau tumor-suppressor protein (pVHL) (from UniProt P40337 1-213)
